Assay [1] concerns the target GST-GluN2B-C (GST fusion with the GluN2B cytoplasmic C-terminus, amino acids 1120-1482) (UniProt Q00960). Nature of the assay: pull-down; 100 mg/ml lysozyme (6.8 mM) or BSA (1.5 mM) on GST-GluN2B-C, GST or empty glutathione beads, conditions as in Figure 1A; eluted, SDS-PAGE, silver stain; both purified.
For assay [2] the target is unchanged. Nature of the assay: microtiter plate binding assay (bound protein eluted, silver stain); 100 mg/ml lysozyme (6.8 mM), BSA (1.5 mM) or IgG on immuno-immobilized GST-GluN2B-C, GST or empty anti-GST wells, conditions as in Figure 1A; eluted, SDS-PAGE, silver stain; both purified.

Protein sequences, listed by entry. Tags and fused reporters are not part of them. Residues count along the entry.
UniProt Q00960, residues 1120-1482: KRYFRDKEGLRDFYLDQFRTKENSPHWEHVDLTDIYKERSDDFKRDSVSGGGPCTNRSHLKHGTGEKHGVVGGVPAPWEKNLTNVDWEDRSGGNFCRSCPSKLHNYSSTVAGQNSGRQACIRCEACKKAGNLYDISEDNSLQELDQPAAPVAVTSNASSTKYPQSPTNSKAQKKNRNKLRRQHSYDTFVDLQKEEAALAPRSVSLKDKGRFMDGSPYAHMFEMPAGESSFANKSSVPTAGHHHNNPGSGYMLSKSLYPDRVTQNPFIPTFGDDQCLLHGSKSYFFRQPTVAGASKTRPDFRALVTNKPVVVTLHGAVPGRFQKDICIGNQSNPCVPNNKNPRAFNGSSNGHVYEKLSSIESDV

These are yes or no findings as the source states them, for the method shown.

Consider “chicken lysozyme (from UniProt P00698 19-147) (enzyme)”, for which the binding entry in assay [1] and in assay [2] was “no binding (tested: 100 mg/ml (6.8 mM))” each time.
